Data on one compound can be found in patent US10226048B2 (priority 2014, dated 2019).

Series [1] can be described thus: Oxidization test of L-ascorbic acid.
A short description of series [2]: Oxidization ability against sodium thiosulfate.

Compound `CC(=O)OO` [PAA, Peracetic Acid] registered an LAA oxidized in series [1] (acidic solution (pH 2.3)) of 50%. In addition, the “time to complete oxidation of LAA” value in series [1] (basic solution (pH 9.4)) is 5 min. Moreover, the “time to complete oxidation of the STS intermediate” value in series [2] (acidic solution (pH 2)) is given as “about 5 minutes”. For the same compound, the “time to complete oxidation of STS” value in series [2] (basic solution (pH 9.3)) stood at 30 s.
